Results: PMC4301810
These are yes or no findings as the source states them, for the method shown. Binding seen in cells or lysates may run through a third protein. Some binding calls cover weakened binding; strength is not graded here. Tags and fused reporters may be left off the sequences shown. Each block holds one binder with its values, some of them ahead of it.

The chains behind the UniProt entries cited, without tags or fusion partners. Residues count along the entry.
UniProt C0LGT6, residues 25-1031: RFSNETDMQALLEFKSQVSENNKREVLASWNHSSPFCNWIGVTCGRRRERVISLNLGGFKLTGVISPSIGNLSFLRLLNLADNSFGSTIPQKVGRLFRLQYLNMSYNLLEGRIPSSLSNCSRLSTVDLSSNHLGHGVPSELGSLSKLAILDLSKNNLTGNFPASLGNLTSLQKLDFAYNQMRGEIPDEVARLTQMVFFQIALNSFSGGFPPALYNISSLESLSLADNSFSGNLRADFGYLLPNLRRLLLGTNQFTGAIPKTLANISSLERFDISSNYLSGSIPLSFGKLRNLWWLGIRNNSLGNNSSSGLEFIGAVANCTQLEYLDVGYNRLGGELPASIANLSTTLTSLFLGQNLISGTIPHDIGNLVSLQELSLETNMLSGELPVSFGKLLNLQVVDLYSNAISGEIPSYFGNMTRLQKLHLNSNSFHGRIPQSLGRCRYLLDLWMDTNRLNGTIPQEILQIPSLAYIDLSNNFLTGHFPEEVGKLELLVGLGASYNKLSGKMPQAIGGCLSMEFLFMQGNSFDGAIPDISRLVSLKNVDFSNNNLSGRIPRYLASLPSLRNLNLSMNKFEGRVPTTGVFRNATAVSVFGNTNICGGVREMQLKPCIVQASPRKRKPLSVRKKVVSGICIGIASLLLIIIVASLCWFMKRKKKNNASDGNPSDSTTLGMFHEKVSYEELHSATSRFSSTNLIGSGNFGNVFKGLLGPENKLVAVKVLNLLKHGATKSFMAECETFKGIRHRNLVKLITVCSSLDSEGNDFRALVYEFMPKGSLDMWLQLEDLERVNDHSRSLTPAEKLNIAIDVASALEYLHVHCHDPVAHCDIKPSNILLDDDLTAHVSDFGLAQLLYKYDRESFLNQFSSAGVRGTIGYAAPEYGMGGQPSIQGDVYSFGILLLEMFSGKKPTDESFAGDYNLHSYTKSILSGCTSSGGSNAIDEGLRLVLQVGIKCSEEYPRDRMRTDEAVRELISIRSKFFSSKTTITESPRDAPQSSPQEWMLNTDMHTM

Target: EFR:GFP (transiently expressed in N. benthamiana) (Arabidopsis thaliana) (UniProt C0LGT6)
Test: co-IP; transient co-expression in N. benthamiana; leaves treated with 100 nM elf18 or mock (water) for 10 min; GFP-tagged receptor precipitated with GFP-Trap agarose beads (3 hr, 4°C; 150 mM Tris-HCl pH 7.5, 150 mM NaCl, 10% glycerol, 1% IGEPAL CA630, 10 mM DTT); blots with anti-GFP and anti-HA

- binding: binds
B1: HA-tagged PLL4 (enzyme, UniProt Q9ZV25 1-654)
chain: MGNGIGKLSKCLTGGAGRNKKPELSILEPDPLDEGLGHSFCYVRPDPTRVSSSKVHSEEETTTFRTISGASVSANTATPLSTSLYDPYGHIDRAAAFESTTSFSSIPLQPIPRSSGPIVPGSGPLERGFLSGPIERGFMSGPLDGSSGPIDGKTGSDQFQRSFSHGLANLRVGSRKGSLVRVLRRAISKTITRGQNSIVAPIKPVKEPDWVFGSDKTRIHQIENNLTVNSLNFSSEGSLLDDDVSLESQNLQWAQGKAGEDRVHVVVSEEHGWLFVGIYDGFNGPDAPDYLLSHLYPAVHRELKGLLWDDPKTDAKSSDEADVENRDSSSEKKSKNWEESQRRWRCEWDRDLDRLLKDRSNGLDLDPDPNSSDVLKALSQALRKTEEAYLENADMMLDENPELALMGSCVLVMLMKGEDVYLMNVGDSRAVLGQKAESDYWIGKIKQDLERINEETMNDFDGCGDGEGASLVPTLSAFQLTVDHSTNVEEEVNRIRKEHPDDASAVSNERVKGSLKVTRAFGAGFLKQPKWNNALLEMFQIDYKGTSPYINCLPSLYHHRLGSKDQFLILSSDGLYQYFTNEEAVSEVELFITLQPEGDPAQHLVQELLFRAAKKAGMDFHELLEIPQGERRRYHDDVSIVVISLEGRMWKSCV

- binding: binds
B2: HA-tagged PLL5 (enzyme, UniProt Q9LQN6 1-662)
chain: MGNGVTKLSICFTGGGGERLRPKDISVLLPDPLDEGLGHSFCYVRPDPTLISSSKVHSEEDTTTTTFRTISGASVSANTATPLSTSLYDPYGHIDRAAAFESTTSFSSIPLQPIPKSSGPIVLGSGPIERGFLSGPIERGFMSGPLDRVGLFSGPLDKPNSDHHHQFQRSFSHGLALRVGSRKRSLVRILRRAISKTMSRGQNSIVAPIKSVKDSDNWGIRSEKSRNLHNENLTVNSLNFSSEVSLDDDVSLENQNLQWAQGKAGEDRVHVVVSEEHGWLFVGIYDGFNGPDAPDYLLSHLYPVVHRELKGLLWDDSNVESKSQDLERSNGDESCSNQEKDETCERWWRCEWDRESQDLDRRLKEQISRRSGSDRLTNHSEVLEALSQALRKTEEAYLDTADKMLDENPELALMGSCVLVMLMKGEDIYVMNVGDSRAVLGQKSEPDYWLAKIRQDLERINEETMMNDLEGCEGDQSSLVPNLSAFQLTVDHSTNIEEEVERIRNEHPDDVTAVTNERVKGSLKVTRAFGAGFLKQPKWNNALLEMFQIDYVGKSPYINCLPSLYHHRLGSKDRFLILSSDGLYQYFTNEEAVSEVELFITLQPEGDPAQHLVQELLFRAAKKAGMDFHELLEIPQGERRRYHDDVSIVVISLEGRMWKSCV
